Data published in patent US10568978B2, “Radiopharmaceutical synthesis methods” (Lantheus Medical Imaging, Inc., priority 2012, dated 2020).
The name of at least one read-out is uncertain.

Experiment: Filter retention: percent recovery of analyte after syringe-pump filtration, HPLC at 295 nm pre- and post-filtration
Type: physicochemical
Conditions: for percent recovery with 25 mm PTFE filter: FIG. 8; for retention/recovery with increasing filter diameter: larger filter diameters, FIG. 7
Experimental: In particular, compositions comprising BMS-747158-01 and BMS-747159-01 were prepared in water comprising absolute ethanol (4 wt. %) and sodium ascorbate (50 mg/mL; 5 wt. %) then loaded into plastic syringes (Norm-Ject™; 12 mL) and placed onto an automated syringe pump. Select filters were then placed on each respective syringe and the composition pumped through the units in a controlled fashion. In all cases, gravimetric analysis of the solution transfer process was performed in order to monitor efficiency of the liquid handling steps. Subsequent quantitative analysis of filter retention was then performed following HPLC determination of the absolute concentration of each analyte in both the pre- and post-filtered solutions; HPLC analysis with detection at 295 nm was performed according to established methods. The following equation was then utilized to determine the percent recovery for each analyte:
[formula] Note a higher value of percent recovery equates to lower retention of the respective analyte, and thus improved overall filter performance. The analysis described herein captures both the mass of the compound that is retained as well as the volume of liquid that is retained. As no normalization is performed, the analysis thus allows for direct comparison of relevant filter parameters.
The compositions comprising BMS-747158-01 and BMS-747159-01 were passed through a variety of filters, as described herein. Individual filter parameters varied in terms of both membrane and housing composition, overall filter diameter, and in some instances the applied coating (Table 1). Further, effects of both individual analyte concentration as well as the overall rate of filtration were also evaluated.

Row | percent recovery with 25 mm PTFE filter | recovery following a second filtration of the solution matrix (Pall PVDF filter, second filtration with solution matrix itself (10 mL), FIG. 6) [%] | retention/recovery with increasing filter diameter | SMILES
1 | equivalent, yet lower percent recovery | ~100 | retain greater amounts | CC(C)(C)n1ncc(OCc2ccc(COCCF)cc2)c(Cl)c1=O [BMS-747158-01]
2 | equivalent, yet lower percent recovery | – | high recovery values | CC(C)(C)n1ncc(OCc2ccc(COCCO)cc2)c(Cl)c1=O [BMS-747159-01]
